Assay results as given in PubChem BioAssay AID2685 (National Center for Advancing Translational Sciences (NCATS), 2010).
Some of the results follow. Shown are side measurements of this screen, not its main read-out; they come without a call. Compounds called inactive in the main read-out are mostly missing here. Words in brackets tell the shape of the fitted curve; partial curves, single points and poor fits give uncertain potencies.

Assay: qHTS Assay for Lipid Storage Modulators in Drosophila S3 Cells;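 as to cell number change: cells counted by Cell Tracker Red CMTPX staining in the red channel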
Conditions: BODIPY lipid droplet fluorescence, 18-24 h; for cell number change: measured here: cell count max response, cells fed with added oleic acid
In short: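 Drosophila S3 cells got compounds at several concentrations plus oleic acid (400 uM solution). Laser-scanning cytometry with 488 nm excitation read lipid droplets at 500-530 nm and cells at 575-640 nm. Percent activity was relative to 20 uM Triacsin C.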

[1] = measured here: lipid fluorescence (Fed channel) AC50, cells fed with added oleic acid
[2] = measured here: cell number channel AC50, cells fed with added oleic acid

## COc1ccc(N=Nc2nc3ccc(Br)cc3n2C)cc1
  cell number change: 29.3%
[1]
  AC50: 8.2 µM [rising, partial curve]

## CSCCC(NS(=O)(=O)c1ccccc1F)C(=O)OCc1ccccc1Cl (stereo not given)
  cell number change: -6.54%
[1]
  AC50: 25.9 µM [rising, single point]

## CCOC(=O)c1cnc2ccc(Br)cc2c1NCCO
  cell number change: -12%
[1]
  AC50: 2.91 µM [rising, partial curve]

## CCOC(=O)c1ccc[n+](CC(=O)c2ccccc2)c1
  cell number change: -10.2%
[1]
  AC50: 3.66 µM [rising, single point]

## Cc1ccc(Cl)cc1NC(=O)c1ccccc1OCC(=O)Nc1ccc(Cl)cc1
  cell number change: -55.2%
[2]
  AC50: 20.6 µM [falling, single point]
[1]
  AC50: 18.4 µM [falling, single point]

## COC(=O)C1(C)NC(c2ccc(O)cc2)C2C(=O)N(c3ccccc3)C(=O)C21 (stereo not given)
  cell number change: -5.57%
[1]
  AC50: 0.731 µM [rising, full curve, poor fit]

## O=C(CSc1nnc(C2CC2)n1Cc1ccccc1)N1CCN(S(=O)(=O)c2ccccc2)CC1
  cell number change: -17.3%
[1]
  AC50: 29.1 µM [rising, single point]

## Cc1ccc(-n2cc[nH]c2=S)c(C)c1
  cell number change: -96.5%

## CC1CCCN(C(=O)CCCn2c(=S)[nH]c3ccccc3c2=O)C1 (stereo not given)
  cell number change: -36.5%
[2]
  AC50: 14.6 µM [falling, partial curve]
[1]
  AC50: 10.3 µM [falling, partial curve]

## N#Cc1cccc(N=c2ssnc2Cl)c1
  cell number change: -14.1%
[2]
  AC50: 6.51 µM [rising, partial curve, poor fit]

## COc1ccc(CCN(C)CC(=O)Nc2cc(C)nc3ccccc23)cc1OC
  cell number change: -0.8%
[1]
  AC50: 3.26 µM [falling, single point]

## Cc1oc(C(C)(C)C)cc1C(=O)Nc1ccc(C(=O)O)cc1
  cell number change: 0.421%

## O=C(NCCN1C(=O)S/C(=C/c2ccccc2)C1=O)C1CCCN1C(=O)c1cccs1 (stereo not given)
  cell number change: -31.5%
[2]
  AC50: 18.4 µM [falling, partial curve, poor fit]
[1]
  AC50: 23.1 µM [falling, partial curve]

## Cc1ccc2cc3cc(C(=O)N4CCCCC4C)oc3nc2c1 (stereo not given)
  cell number change: -3.16%

## OCCN1CCN(C(=S)NC2CCCC2)CC1
  cell number change: 37.5%

## Cc1cc(C)n2nc(S(=O)(=O)NCCc3ccccc3)nc2n1
  cell number change: -0.552%

## CC(C)CNS(=O)(=O)c1ccccc1C(=O)N1CCCCC1
  cell number change: 52.3%
[1]
  AC50: 14.6 µM [rising, partial curve]

## O=C(CN(Cc1ccccc1)C(=O)c1cccc([N+](=O)[O-])c1)Nc1c(Cl)cc(Cl)cc1Cl
  cell number change: 14.6%
[1]
  AC50: 14.6 µM [rising, single point]

## O=c1[nH]c(C2CCN(S(=O)(=O)c3ccc(C(F)(F)F)cc3)CC2)nc2c1nnn2Cc1cccc(F)c1
  cell number change: 2.08%
[1]
  AC50: 1.16 µM [falling, single point]

## Cc1ccc(OCC(O)Cn2c(N)nc3c2c(=O)n(C)c(=O)n3C)cc1 (stereo not given)
  cell number change: -19.2%
[1]
  AC50: 23.1 µM [falling, single point]

## CCOc1cc(NC(=O)C2CCCO2)c(OCC)cc1NC(=O)C1CC1 (stereo not given)
  cell number change: 13.8%

## O=C1CN(C(=O)COC(=O)c2ccccc2NCc2ccco2)c2ccccc2N1
[2]
  AC50: 1.84 µM [rising, partial curve]

## Cc1cc(N)n(-c2ccccc2C)n1
[2]
  AC50: 0.00651 µM [rising, full curve, poor fit]
[1]
  AC50: 0.116 µM [rising, single point]

## O=C(N/N=C\c1cccnc1)c1ccc(Cl)s1
  cell number change: 20.9%

## CC1(C)CC(=O)C/C(=N\NC(=O)CCc2ccc(S(=O)(=O)N3CCOCC3)cc2)C1
  cell number change: 0.82%
[2]
  AC50: 0.00461 µM [falling, full curve, poor fit]

## CN(C)NC(=O)c1ccsc1NC(=O)c1ccc(S(=O)(=O)N2CCCC2)cc1
  cell number change: -19%

## CS(=O)(=O)N1CCC(c2noc(-c3ccc(C(F)(F)F)cc3)n2)CC1
  cell number change: -32.2%
[2]
  AC50: 8.2 µM [falling, partial curve, poor fit]
[1]
  AC50: 29.1 µM [falling, single point]

## Nn1c(SCC(=O)Nc2ccc(S(=O)(=O)N3CCCC3)cc2)nnc1C(F)(F)F
  cell number change: 62.4%
[2]
  AC50: 29.1 µM [rising, single point]
[1]
  AC50: 29.1 µM [rising, single point]

## O=C(NC(CO)c1ccccc1)c1ccco1 (stereo not given)
  cell number change: 13.4%
[1]
  AC50: 29.1 µM [falling, single point]

## CCOc1ccc(-n2cc(C(=O)N3CCC(C)CC3)c3cc(OC)c(OC)cc3c2=O)cc1
  cell number change: 36.8%
[2]
  AC50: 1.64 µM [rising, full curve]
[1]
  AC50: 0.651 µM [rising, full curve, poor fit]

## CC1(C)CC2CC(C)(CN2S(=O)(=O)c2ccc(N)cc2)C1 (stereo not given)
  cell number change: 4.45%
[1]
  AC50: 0.164 µM [falling, full curve, poor fit]

## COc1ccc(S(=O)(=O)N2CCOCC2)cc1NC(=O)CSc1nnnn1C1CC1
  cell number change: -46.1%
[2]
  AC50: 7.31 µM [falling, partial curve, poor fit]
[1]
  AC50: 16.4 µM [falling, partial curve]

## COc1ccc(N(Cc2cc3ccccc3[nH]c2=O)C(=O)C2CCCO2)cc1 (stereo not given)
  cell number change: 6.26%
[1]
  AC50: 29.1 µM [rising, partial curve, poor fit]

## CC(C)n1c(SCC(=O)Nc2ccc3c(c2)OCO3)nc2c1c(=O)n(C)c(=O)n2C
  cell number change: 1.7%
[1]
  AC50: 1.46 µM [rising, full curve]

## Cc1ccc(C(=O)Nc2ccccc2Cl)cc1
  cell number change: 4.01%
[2]
  AC50: 0.291 µM [rising, partial curve, poor fit]
[1]
  AC50: 0.58 µM [rising, single point]

## NC(=O)N/N=C/c1ccc2cccc(OCc3ccccc3)c2n1
  cell number change: 27.3%
[2]
  AC50: 2.91 µM [rising, partial curve, poor fit]
[1]
  AC50: 0.103 µM [rising, partial curve, poor fit]

## Cc1cccc2cc(CN(Cc3cccs3)Cc3nnnn3Cc3ccccc3)c(=O)[nH]c12
  cell number change: 4.39%

## Cc1cccc(C(=O)NC(=S)Nc2ccc(Cc3ccncc3)cc2)c1
  cell number change: -6.69%
[1]
  AC50: 18.4 µM [falling, single point]

## O=C(NS(=O)(=O)Oc1cccc(F)c1)OC[C@@H]1CCCN2CCCCC12 (stereo not given in full)
  cell number change: -10.4%

## CCOc1ccc(N(CC(=O)NC2CCCC2)C(=O)CCC(=O)Nc2nccs2)cc1
  cell number change: -2.63%

## CC1CCCN(CCCN2C(=O)C3C(C(=O)Nc4ccc(Cl)cc4)C4C=CC3(O4)C2C(=O)NC2CCCCC2)C1 (stereo not given)
  cell number change: 14.5%
[1]
  AC50: 0.146 µM [falling, full curve, poor fit]

## COc1cccc(Nc2nc(-c3ccccc3)nc3ccccc23)c1
  cell number change: 5.19%

## Cc1cc(-n2c(C)cc(C(=O)CSc3[nH]c(=O)cc(C(F)(F)F)c3C#N)c2C)no1
  cell number change: -0.518%
[1]
  AC50: 29.1 µM [rising, single point]

## CCOC(=O)CC(NC(=O)c1cccs1)c1ccc(OCC)cc1 (stereo not given)
  cell number change: -5.65%
[1]
  AC50: 0.00411 µM [falling, full curve, poor fit]

## Cc1cc(C)n2nc(SCCC(=O)NCc3ccccc3)nc2n1
[2]
  AC50: 6.51 µM [rising, single point]

## Cc1nnc(SCC(=O)Nc2nccs2)n1C(C)C
  cell number change: -19.4%
[1]
  AC50: 6.51 µM [rising, single point]

## CCOC(=O)c1c(C)n(-c2ccc(C)cc2)c2ccc(OCC(O)CNCC3CCCO3)cc12 (stereo not given)
  cell number change: -46.8%
[2]
  AC50: 29.1 µM [falling, single point]
[1]
  AC50: 29.1 µM [falling, single point]

## CC(C)(C)NC(=O)C(c1ccc(Cl)cc1)N(Cc1ccco1)C(=O)CCl (stereo not given)
  cell number change: 3.16%

## Cc1ccc(S(=O)(=O)N(C)C)cc1NC(=O)C(C)NC(C)c1cccs1 (stereo not given)
  cell number change: -0.84%
[1]
  AC50: 29.1 µM [falling, single point]

## CSCCC(=O)N1CCCC(CNC(=O)c2ccccc2Cl)C1 (stereo not given)
  cell number change: -10.6%
[1]
  AC50: 2.59 µM [falling, partial curve, poor fit]

## CC(=O)c1ccc(NC(=O)CSc2nnc(C3CC3)n2C)cc1
[1]
  AC50: 0.082 µM [falling, partial curve, poor fit]

## Cc1ccc(C(=O)Nc2ccc3ccccc3c2)cc1
  cell number change: -22.3%
[1]
  AC50: 23.1 µM [falling, single point]

## Cc1ccc(C)c(N2CCN(C(=O)CCn3c(=S)[nH]c4cc5c(cc4c3=O)OCO5)CC2)c1
  cell number change: 20.7%
[1]
  AC50: 3.26 µM [rising, partial curve, poor fit]

## CCN1C(=O)CCC(C(=O)O)C1c1ccc(OC)cc1 (stereo not given)
  cell number change: -54.2%
[2]
  AC50: 0.731 µM [falling, full curve]

## O=C(COc1ncnc2c(Cl)cc(Cl)cc12)N1CCN(S(=O)(=O)c2ccccc2)CC1
  cell number change: 48.4%
[2]
  AC50: 4.11 µM [rising, full curve, poor fit]

## COc1cccc(/C=N/Nc2snc(SC)c2C#N)c1O
  cell number change: -36.4%
[2]
  AC50: 18.4 µM [falling, single point]
[1]
  AC50: 16.4 µM [falling, single point]

## Cc1ccc2c(cnn2C(=O)CCCC(=O)NCc2ccc(Cl)cc2)c1
  cell number change: -21.9%
[1]
  AC50: 32.6 µM [falling, single point]

## CC(=O)Oc1cccc(/C=N\NC(=O)C(=O)N/N=C/c2cccc(OC(C)=O)c2)c1
  cell number change: -2%
[1]
  AC50: 29.1 µM [falling, single point]

## Cc1nn2c(-c3ccc(F)cc3)ccnc2c1Cl
  cell number change: 2.11%
[2]
  AC50: 0.731 µM [falling, partial curve, poor fit]
[1]
  AC50: 16.4 µM [rising, single point]

## Cc1cc(O)c(C(C)C)cc1NC(=O)c1ccccc1Cl
  cell number change: -13.9%
